PubChem BioAssay AID540256 (National Center for Advancing Translational Sciences (NCATS), 2011)
Screen size: about 300,000 compounds; about 3,700 (1.2%) were called active. Inconclusive means that the source gave no clear call. Such entries were picked first, then a sample of the others. The call rests on the fitted dose curve; tested in HEK293 cells. A potency beside an inconclusive call is a rough fit, not a confirmed value.

Test: qHTS for Inhibitors of binding or entry into cells for Lassa Virus; further: nearly all actives have a fitted effect of over 50% in size
Settings: Lassa virus pseudotype entry inhibition, cell reporter; activity change, negative = inhibition: at 37.9 µM (top of the series) unless noted
On the % scale 0 is the no-effect control and ±100 the full control effect; potency means the concentration at half of the fitted maximal effect.

| SMILES | activity change, negative = inhibition | Potency |
| --- | --- | --- |
| Cc1cccc(C(=O)n2nc(-c3cccnc3)nc2NCc2ccc(F)cc2)c1 | inactive: 12.3% [at 46.1 µM] |  |
| CCCOc1cccc(-c2cc(C(=O)NN)c3ccccc3n2)c1 |  | inconclusive: 23.1 µM [inhibitor, single point] |
| O=C(NC(=S)N(CCCCO)C1CCCCC1)c1sc2ccccc2c1Cl |  | inconclusive: 18.3 µM [inhibitor, single point] |
| CCN(CC)S(=O)(=O)c1ccc(Cc2ncc(C(F)(F)F)cc2Cl)s1 |  | inconclusive: 14.1 µM [inhibitor, partial curve, poor fit] |
| Fc1ccc(C(c2nnnn2Cc2cccs2)N2CCN(c3ccccc3)CC2)cc1 (configuration not stated) |  | inconclusive: 29.1 µM [inhibitor, single point] |
| O=[n+]1c2c(n([O-])c3cc(F)c(N4CCCC4)cc31)CCCC2 |  | inconclusive: 0.562 µM [activator, single point] |
| COc1ccc(NS(=O)(=O)c2cc(NC(=O)c3ccncc3)ccc2N2CCOCC2)cc1 | inactive: 7.28% |  |
| Cc1ccc(CNC(=O)CSc2ccc(-c3ccccn3)nn2)cc1 |  | inconclusive: 11.2 µM [inhibitor, partial curve, poor fit] |
| CCCc1cc(=O)oc2cc(OCC(=O)NCCCn3ccnc3)ccc12 |  | inconclusive: 6.31 µM [inhibitor, single point] |
| O=C(CNC(=O)c1ccc(Cl)cc1Cl)OC1CCCCC1=O (configuration not stated) |  | inconclusive: 14.1 µM [activator, partial curve, poor fit] |
| CCOc1ccc(NC(=O)CSc2nc3ccsc3c(=O)n2CC)cc1 | inactive: -1.54% [at 46.1 µM] |  |
| Cc1ccc(C)c(N(C)S(=O)(=O)c2ccc3[nH]cc(C(=O)NCCN4CCOCC4)c(=O)c3c2)c1 |  | inconclusive: 32.6 µM [inhibitor, partial curve, poor fit] |
| CC(=O)Nc1ccc(S(=O)(=O)NCC(=O)OCC(=O)c2ccc[nH]2)cc1 | inactive: -0.036% |  |
| CCCCC(=O)Nc1ccc(C)c(S(=O)(=O)N2CCCCCC2)c1 |  | inconclusive: 0.112 µM [inhibitor, full curve, poor fit] |
| COc1ccccc1OCC(=O)N/N=C1\CCCCc2ccccc21 |  | inconclusive: 14.1 µM [inhibitor, single point] |
| Cc1cc(C)n(CCc2nc(-c3cccs3)cs2)n1 | inactive: -10.2% |  |
| O=C1NC2=C(CCc3ccccc32)C(c2ccccc2)N1 (configuration not stated) |  | inconclusive: 6.51 µM [inhibitor, single point] |
| O=c1[nH]c2cc([N+](=O)[O-])ccc2c2ccc([N+](=O)[O-])cc12 |  | inconclusive: 2.24 µM [inhibitor, single point] |
| CC1Sc2ccc(S(=O)(=O)CCC(=O)N3CCN(c4ccccc4F)CC3)cc2NC1=O (configuration not stated) |  | inconclusive: 35.5 µM [inhibitor, single point] |
| CCN1CCN(c2nc3c(S(=O)(=O)c4ccc(C)cc4)nnn3c3ccsc23)CC1 | inactive: 17.7% [at 46.1 µM] |  |
| CN(CCC(=O)Nc1ccc(Br)cc1)Cc1ccccc1 |  | inconclusive: 8.91 µM [inhibitor, partial curve, poor fit] |

Reprinted from above (3 entries):

| SMILES | activity change, negative = inhibition | Potency |
| --- | --- | --- |
| CCN(CC)S(=O)(=O)c1ccc(Cc2ncc(C(F)(F)F)cc2Cl)s1 |  | inconclusive: 14.1 µM [inhibitor, partial curve, poor fit] |
| Fc1ccc(C(c2nnnn2Cc2cccs2)N2CCN(c3ccccc3)CC2)cc1 (configuration not stated) |  | inconclusive: 29.1 µM [inhibitor, single point] |
| O=[n+]1c2c(n([O-])c3cc(F)c(N4CCCC4)cc31)CCCC2 |  | inconclusive: 0.562 µM [activator, single point] |

(further entries)

| SMILES | activity change, negative = inhibition | Potency |
| --- | --- | --- |
| COC(=O)c1cnc(Oc2ccc(NC(=O)NC(=O)c3c(OC)cccc3OC)cc2)cc1C(F)(F)F |  | inconclusive: 3.98 µM [inhibitor, partial curve, poor fit] |
| CCC1CCCCN1C(=O)COC(=O)c1cccs1 (configuration not stated) | inactive: -0.145% |  |
| COc1ccc(CNC(NC(=O)c2ccccc2)(C(F)(F)F)C(F)(F)F)cc1 |  | inconclusive: 12.6 µM [inhibitor, partial curve, poor fit] |
| COc1ccc(NC(=O)CN(C)CC(=O)Nc2ccccc2SC)cc1Cl |  | inconclusive: 20 µM [inhibitor, single point] |
| CCC1(NS(=O)(=O)c2ccc(N)cc2)C(=O)N(C)C(=O)N(C)C1=O |  | inconclusive: 7.08 µM [inhibitor, partial curve, poor fit] |
| COc1cccc(NC(=O)Nc2ccc3snnc3c2)c1 | inactive: 22.6% [at 46.1 µM] |  |
| COc1ccc(NS(=O)(=O)c2cccc(NC(=O)C34CCC(CC3)C4)c2)cc1 |  | active: 11.6 µM |
| Cc1ccc(S(=O)(=O)Nc2cc(-c3nn(C)c(=O)c4ccccc34)ccc2N2CCOCC2)cc1 |  | inconclusive: 8.2 µM [inhibitor, partial curve, poor fit] |
| CC1CCC(C(=O)NC(C(=O)N2CCc3ccccc3C2)C(C)C)CC1 (configuration not stated) |  | inconclusive: 25.9 µM [inhibitor, partial curve, poor fit] |
| CC(NC(=O)COC(=O)c1c[nH]c2ccccc12)c1ccccc1 (configuration not stated) |  | active: 8.91 µM |
| CC1CN(S(=O)(=O)c2ccc(C(=O)NC3CCCCC3)cc2)CC(C)O1 (configuration not stated) |  | inconclusive: 11.2 µM [inhibitor, partial curve] |
| O=C(Cc1nc(=O)c2ccccc2s1)Nc1ccccc1 |  | inconclusive: 1.64 µM [activator, partial curve] |
| CCOc1ccccc1N(CC(=O)N/N=C/c1cc(Br)ccc1OC)S(C)(=O)=O |  | inconclusive: 20 µM [inhibitor, partial curve, poor fit] |
| COc1ccc(-n2c(CN3CCN(c4ccccc4)CC3)nc3ccc([N+](=O)[O-])cc3c2=O)c(OC)c1 |  | inconclusive: 1.26 µM [inhibitor, partial curve, poor fit] |
| COc1ccccc1N1CCN(C2=NS(=O)(=O)c3ccccc32)CC1 |  | inconclusive: 29.1 µM [activator, single point] |
| CNC(=S)N/N=C/c1cn(Cc2ccc(F)cc2)c2ccccc12 |  | inconclusive: 9.2 µM [inhibitor, partial curve, poor fit] |
| COc1ccc(-c2cc(C)no2)cc1S(=O)(=O)N1CCCC(C)C1 (configuration not stated) |  | inconclusive: 11.2 µM [inhibitor, partial curve, poor fit] |
| Cc1ccsc1/C=N/NC(=O)CN1CCN(Cc2ccccc2)CC1 | inactive: 15.2% [at 46.1 µM] |  |
| COc1ccccc1NC(=O)C(Sc1ccccc1)c1ccccc1 (configuration not stated) |  | inconclusive: 14.6 µM [inhibitor, partial curve] |
| CC1(C(=O)NC2CCCCCCC2)CCC(=O)N1CCN1CCOCC1 (configuration not stated) | inactive: 13.9% |  |
| O=C(N[C@@H](Cc1c[nH]c2ccccc12)C(=O)NC1CC1)c1ccccc1Cl |  | inconclusive: 11.2 µM [activator, partial curve, poor fit] |
